In patent publication US9687591B2, “Building stratified biomimetic tissues and organs using crosslinked ultrashort peptide hydrogel membranes” (Agency for Science, Technology and Research, priority 2010, dated 2017):
At least one peptide structure holds a part that was inferred or is arguable (an end, a ring closure or a residue). Peptide text beside a SMILES is read from it.

How the values were obtained:
[1] = Oscillation rheology of cysteine-containing peptide gels (stiffness G', LVE limit); assay type: physicochemical
Description: Oscillatory rheology was used to quantify the stiffness of IVKC gels formed in the presence of varying amount of H2O2 in PBS. Elastic modulus, G′, was plotted against angular frequency, ω (FIG. 45). As already mentioned in FIG. 41, the G′ value increased tremendously after crosslinking with 0.06% H2O2 in PBS. Further increasing the amount of H2O2 increased the G′ values even more. For instance, gels cross-linked completely with 0.2% H2O2 in PBS achieved a G′ value of nearly 1 MPa. This level of stiffness was not achieved before. Hereafter, IVKC gels will be prepared in the presence of 0.2% H2O2 in PBS. Data here was reported as average of 4 samples±standard deviation.
(§1) Rheology: The rheological properties of casted gels were measured with an ARES-G2 (TA Instruments, USA) using the oscillation method. Frequency-sweep studies were performed with ω=0-100 rad/s at strain, γ=0.1%. The gel stiffness was represented by plotting G′ against ω. Amplitude-sweep studies were performed beforehand at 1 Hz with γ=0-100%. The LVE limit of the gel was defined as the value of γ when G′ first dropped below 90% of the average initial value.
as §1, with “The” for “Rheology: The”

[2] = test system: Fibroblasts isolated from the cornea/sclera of New Zealand White rabbits; assay: 3D primary cell culture, calcein staining and cell-spread area; assay type: cell-based, rabbit
HepG2 cells [3] = assay: Quantification of cell-spread area; assay type: cell-based; settings: gel culture in presence or absence of RGD, p>0.05
[4] = Water soak of casted gels (shape retention / degradation); assay type: physicochemical
Method: Peptide was dissolved in 200 μL of water+/−H2O2 and filled into custom-made hollow ring casts (diameter ˜1 cm). The ring ends were sealed with parafilm to minimise evaporation and the cast was kept at 25° C. for 22 hours before further manipulations.
LK6 or LK6C gels were first casted and then soaked in water for various durations. […] These observations are also supported by rheological measurements (FIG. 28). Therefore, the strategy of disulfide crosslinking has increased the resistance of the gel to degradation and has made it possible to use the gel at a lower concentration compared to previous formulations. This, in turn, will translate into significant cost savings.

[5] = Concentration needed for gelation; assay type: physicochemical
Method: FIG. 18A illustrates the determination of a suitable gelation concentration with the LK6 control peptide sequence. A working concentration was established that was suitably low so as to save on material during testing but yet, capable of forming gels strong enough to be manipulated. LK6 gels were therefore casted at different concentrations and their stiffness was measured (average±s.d. of triplicates). As expected, G′ values increased with peptide concentration and it was determined that a working concentration of 12 mM afforded gels with sufficient mechanical integrity to withstand handling.
The present invention as defined above offers significant improvements in material properties such as stiffness, elasticity and resistance of the gel to degradation compared to previous disclosures—ultra-small peptide-based and peptide/polymer-based hydrogels. Reactive chemical groups are also introduced to the peptide fibers which allow the facile in-situ chemical conjugation of biological signals. Furthermore, compared to previous formulations, less material is now needed for gelation (e.g. 10 mg/ml LK6C instead of 25 mg/ml for LK6), which translates into significant cost savings and higher water contents. This class of material is suitable for biomedical applications, for example but not limited to, three-dimensional cell culture, tissue engineering, sensing and drug and gene delivery.

HepG2 cells [6] = assay: 3D cell culture on gels, calcein-AM live cell staining; assay type: cell-based; settings: after four days, purified gels with different concentrations of RGD
[7] = Release of encapsulated dextran-dye from hydrogel; assay type: physicochemical
3T3 murine fibroblasts = assay: 3D culture of murine fibroblasts in gels; assay type: cell-based; settings: NIH-3T3 murine fibroblasts (data not shown)
[8] = LK6C 10 mg/mL, CRGD 1 mg/mL, casted overnight with 0.06% H2O2

SMILES: CC[C@H](C)[C@H](NC(=O)[C@H](CC(C)C)NC(C)=O)C(=O)N[C@H](C(=O)N[C@@H](C)C(=O)NCC(=O)N[C@@H](CCCCN)C(=O)N[C@@H](CS)C(=O)O)C(C)C [LK6C, LIVAGKC] (Ac-LIVAGKC-OH)
- elasticity upon CRGD conjugation [1, 8]: less elastic
- stiffness upon CRGD conjugation [1, 8]: maintained their stiffness
- increase of linear viscoelastic (LVE) limit (elasticity) following oxidation ([1]; oxidised vs non-oxidised gels, 0.03-0.1% H2O2 regimes): 2.4-3.8 fold
- cell-spread area, 2D culture vs gel cultures ([2]; ANOVA, p<0.05): spreaded more in 2D culture
- cell viability (calcein AM) ([2]; four days, purified gels +/- various concentrations of CRGD): viable fibroblasts were seen in all cases
- effect on average cell-spread area compared to regular 2D culture (HepG2 cells [3]): insignificant effects
- gel state after water soak ([4]; not oxidised, 24 hours of water soak): severely degraded
- gel state after water soak ([4]; oxidised 2 hours cast-and-soak or in situ, 96 hours of water soak): remained intact
- concentration needed for gelation [5]: 10000 µg/mL
- cell viability (calcein staining) (HepG2 cells [6]): viable
- release profile of dextran-dye (10 kDa) ([7]; 1 mg/mL dextran-dye, 48-well plates, water, room temperature): no burst release, but a gradual release up till 28 days
- release rate of oxidized vs non-oxidized hydrogel ([7]; oxidized for 2 hrs): lower
- cell spreading, 2D culture vs 3D gel culture (3T3 murine fibroblasts): spreaded more in 2D culture
